Measurements reported in PubChem BioAssay AID256 (DTP/NCI, 2004).
The list is a part of this screen's results and no random one: it is rich in T/C values a quarter to a half above the control, in often repeated tests (any T/C) and in doses without a T/C. Other doses and runs of a compound stand elsewhere. T/C: endpoint of the treated group in % of that of the vehicle group. Some doses have a count of surviving animals in place of a T/C: the source files T/C as zero there, which appears to mark a toxic dose or a test without result, not a measured value. Some survivor counts are full or nearly so, which does not show that the dose was tolerated: the source hardly ever lists a survival T/C far under the control, and the zero likely stands for such cases as well. Survivors were counted at the toxicity check, usually on the fifth day, unless a day is given; later deaths do not show. Schedule codes are those of the source, taken here to give the interval after Q, in days (D) or hours (H), and the number of doses after X. Some entries were tested several times; the values are given in rising order. Where survival is the endpoint, this PubChem deposit counts one and a half times the control or more as active, and values a quarter to a half above the control carry no call in these data; other NCI protocols may use other cut-offs. Marks such as (2×) count equal records among those shown. Some T/C values are followed by the survivors on the day toxicity was checked, most often the fifth; where none is given, no animal had died by that day.

System: CD2F1 mice, L1210 leukemia ip, survival T/C
Assay: NCI In Vivo Anticancer Drug Screen. Data for tumor model L1210 Leukemia (intraperitoneal) in CD2F1 (CDF1) mice
Settings: T/C endpoint: mean survival time, higher T/C = longer survival
Procedure, shortened: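 Activity against a transplanted murine tumor was judged by comparing the compound group with a vehicle group. The outcome in the treated animals was divided by that in the controls.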

[1] = dose: 6.25 mg/kg/injection, schedule: Q01DX009 (oral), vehicle: saline
[2] = dose: 16.0 mg/kg/injection, schedule: Q01DX005 (ip), vehicle: saline

With `Nc1ncn(C2OC(CO)C(O)C2O)c(=O)n1` (stereo not given) the T/C (dose: 0.25 mg/kg/injection, schedule: Q03HX024 (ip), vehicle: saline) was 128 % of control, the T/C (dose: 0.5 mg/kg/injection, schedule: Q01DX005 (ip), vehicle: water) was 134 % of control and the T/C (dose: 0.5 mg/kg/injection, schedule: Q01DX009 (ip), vehicle: saline, evaluated on day 45) was 140 % of control. The T/C (dose: 0.5 mg/kg/injection, schedule: Q01DX009 (ip), vehicle: saline, evaluated on day 50) was 135 % of control, the T/C (dose: 0.75 mg/kg/injection, schedule: Q01DX005 (ip), vehicle: saline) was 142 % of control and the T/C (dose: 0.75 mg/kg/injection, schedule: Q01DX005 (ip), vehicle: water, evaluated on day 30) was 139 % of control. The T/C (dose: 0.75 mg/kg/injection, schedule: Q01DX005 (ip), vehicle: water, evaluated on day 35) was 145 % of control, the T/C (dose: 0.75 mg/kg/injection, schedule: Q01DX009 (ip), vehicle: saline) was 126, 132, 146 [5 of 6 alive], 151 [5 of 6 alive], 172, 176, 189 % of control and the T/C (dose: 0.78 mg/kg/injection, schedule: Q01DX009 (ip), vehicle: saline) was 131, 137, 139 % of control. For the same compound, the T/C (dose: 1.0 mg/kg/injection, schedule: Q01DX005 (ip), vehicle: water) was 148 % of control, the T/C (dose: 1.25 mg/kg/injection, schedule: Q04DX003 (ip), vehicle: saline) was 118, 122, 132, 134, 136 % of control and the T/C (dose: 1.25 mg/kg/injection, schedule: Q06HX012 (ip), vehicle: saline) was 134 and 148 % of control. For the same compound, the T/C (dose: 1.5 mg/kg/injection, schedule: Q01DX005 (ip), vehicle: water) was 145 % of control, the T/C (dose: 1.5 mg/kg/injection, schedule: Q01DX009 (ip), vehicle: saline) was 144, 159, 164, 180, 182, 190 [5 of 6 alive], 221 % of control and the T/C (dose: 1.56 mg/kg/injection, schedule: Q01DX009 (ip), vehicle: saline) was 148 % of control [5 of 6 alive]. For the same compound, the T/C (dose: 1.56 mg/kg/injection, schedule: Q01DX009 (oral), vehicle: saline) was 131 % of control, the T/C (dose: 1.56 mg/kg/injection, schedule: Q04DX003 (ip), vehicle: saline) was 134 % of control and the T/C (dose: 2.0 mg/kg/injection, schedule: Q01DX005 (ip), vehicle: saline) was 175, 183, 226, 232 % of control. The T/C (dose: 2.5 mg/kg/injection, schedule: Q04DX003 (ip), vehicle: saline) was 117 (2×), 128, 147, 156 % of control, the T/C (dose: 3.0 mg/kg/injection, schedule: Q01DX009 (ip), vehicle: saline) was 154 [5 of 6 alive], 158, 182, 223, 224, 228 [5 of 6 alive], 234 % of control and the T/C (dose: 3.12 mg/kg/injection, schedule: Q01DX009 (ip), vehicle: saline) was 133 % of control. For the same compound, the T/C (dose: 3.13 mg/kg/injection, schedule: Q01DX009 (ip), vehicle: saline) was 127 % of control, the T/C (dose: 3.75 mg/kg/injection, schedule: Q04DX003 (ip), vehicle: saline) was 139 % of control and the T/C (dose: 4.0 mg/kg/injection, schedule: Q01DX005 (ip), vehicle: saline) was 225, 250, 255, 291 % of control. For the same compound, the T/C (dose: 4.0 mg/kg/injection, schedule: Q03HX024 (ip), vehicle: saline) was 129 % of control, the T/C (dose: 5.0 mg/kg/injection, schedule: Q04DX003 (ip), vehicle: saline) was 140, 149, 156, 164, 168, 175, 177 % of control and the survivor count (dose: 6.0 mg/kg/injection, schedule: Q01DX005 (ip), vehicle: water) was 6 of 6. For the same compound, the T/C (dose: 6.0 mg/kg/injection, schedule: Q01DX009 (ip), vehicle: saline) was 102, 102 [5 of 6 alive], 121, 125, 130, 170 % of control, the T/C (dose: 6.25 mg/kg/injection, schedule: Q01DX009 (ip), vehicle: saline) was 101, 115, 140, 194 (2×), 202, 225, 229 % of control and the T/C [1] was 148 % of control. For the same compound, the survivor count [1] was 2 of 6, the T/C (dose: 6.25 mg/kg/injection, schedule: Q04DX003 (ip), vehicle: saline) was 128 % of control and the T/C (dose: 8.0 mg/kg/injection, schedule: Q01DX005 (ip), vehicle: saline) was 245, 251, 270, 277 % of control. The survivor count (dose: 8.0 mg/kg/injection, schedule: Q03HX024 (ip), vehicle: saline) was 2 of 8, the T/C (dose: 10.0 mg/kg/injection, schedule: Q04DX003 (ip), vehicle: saline) was 175, 181, 184, 188, 194, 210, 232, 235 % of control and the survivor count (dose: 12.0 mg/kg/injection, schedule: Q01DX009 (ip), vehicle: saline) was 2 of 6. For the same compound, the T/C (dose: 12.5 mg/kg/injection, schedule: Q01DX001 (ip), vehicle: saline) was 137 and 140 % of control, the T/C (dose: 12.5 mg/kg/injection, schedule: Q01DX009 (ip), vehicle: saline, evaluated on day 30) was 123, 157, 203, 211 % of control (2×) and the T/C (dose: 12.5 mg/kg/injection, schedule: Q01DX009 (ip), vehicle: saline, evaluated on day 50) was 179 % of control. For the same compound, the survivor count (dose: 12.5 mg/kg/injection, schedule: Q01DX009 (ip), vehicle: saline) was 5 of 6 and 6 of 6, the survivor count (dose: 12.5 mg/kg/injection, schedule: Q01DX009 (oral), vehicle: saline) was 3 of 6 and the T/C (dose: 12.5 mg/kg/injection, schedule: Q04DX003 (ip), vehicle: saline) was 132 % of control (2×). The T/C [2] was 100, 120, 151 % of control, the survivor count [2] was 7 of 8 and the T/C (dose: 20.0 mg/kg/injection, schedule: Q04DX003 (ip), vehicle: saline) was 130, 174, 178, 183, 184, 225, 229, 238, 239 % of control. For the same compound, the T/C (dose: 25.0 mg/kg/injection, schedule: Q01DX001 (ip), vehicle: saline) was 146 % of control, the T/C (dose: 25.0 mg/kg/injection, schedule: Q01DX009 (ip), vehicle: saline, evaluated on day 30) was 185 [5 of 6 alive], 200, 218, 229 % of control and the T/C (dose: 25.0 mg/kg/injection, schedule: Q01DX009 (ip), vehicle: saline, evaluated on day 50) was 207 % of control. For the same compound, the T/C (dose: 25.0 mg/kg/injection, schedule: Q04DX003 (ip), vehicle: saline) was 129 and 149 % of control, the T/C (dose: 40.0 mg/kg/injection, schedule: Q04DX003 (ip), vehicle: saline) was 109, 122, 125, 126, 128, 135, 145 (2×), 161 % of control and the T/C (dose: 50.0 mg/kg/injection, schedule: Q01DX009 (ip), vehicle: saline, evaluated on day 30) was 191, 244, 247, 250 % of control. For the same compound, the T/C (dose: 50.0 mg/kg/injection, schedule: Q01DX009 (ip), vehicle: saline, evaluated on day 50) was 232 % of control, the T/C (dose: 50.0 mg/kg/injection, schedule: Q04DX003 (ip), vehicle: saline) was 148 % of control and the T/C (dose: 100.0 mg/kg/injection, schedule: Q01DX009 (ip), vehicle: saline, evaluated on day 30) was 180, 246, 270 % of control. For the same compound, the T/C (dose: 100.0 mg/kg/injection, schedule: Q01DX009 (ip), vehicle: saline, evaluated on day 50) was 228 % of control.
